In patent EP1388586A2, “Identification of broadly reactive DR restricted epitopes” (priority 1998, dated 1999):

Test system: panel of purified HLA DR molecules
Assay type: binding, human
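Also: competitive inhibition of radiolabeled probe peptide binding to purified HLA DR molecules, with inhibitory potency of unlabeled peptides taken as an approximation of affinity.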

Row | Molecule | Total Alleles Bound
1 | CC(C)C[C@H](NC(=O)CNC(=O)[C@H](C)N)C(=O)N[C@@H](CC(C)C)C(=O)NCC(=O)N[C@@H](CC(N)=O)C(=O)N[C@H](C(=O)N[C@@H](CO)C(=O)N[C@H](C(=O)N[C@H](C(=O)N[C@@H](CC(C)C)C(=O)N[C@@H](CC(C)C)C(=O)NCC(=O)NCC(=O)N[C@H](C(=O)O)C(C)C)C(C)C)[C@@H](C)O)C(C)C [Peptide 1188.13] | 5
2 | CC[C@H](C)[C@H](NC(=O)[C@H](CO)NC(=O)[C@H](CO)NC(=O)[C@H](CC(N)=O)NC(=O)[C@@H](NC(=O)[C@@H](NC(=O)[C@H](CC(N)=O)NC(=O)[C@@H](N)Cc1ccccc1)C(C)C)C(C)C)C(=O)NCC(=O)N[C@@H](CC(C)C)C(=O)N[C@H](C(=O)N[C@@H](CCSC)C(=O)N[C@H](C(=O)N[C@@H](CC(C)C)C(=O)N[C@@H](CO)C(=O)O)C(C)C)[C@@H](C)CC [Peptide 27.384] | 5
3 | CC[C@H](C)[C@H](NC(=O)[C@H](CC(C)C)NC(=O)[C@H](CCCCN)NC(=O)[C@H](CCSC)NC(=O)[C@H](C)NC(=O)[C@H](CC(C)C)NC(=O)[C@@H]1CCCN1C(=O)[C@@H](NC(=O)[C@H](C)NC(=O)[C@H](Cc1c[nH]cn1)NC(=O)[C@H](CC(N)=O)NC(=O)[C@@H](NC(=O)[C@H](Cc1c[nH]c2ccccc12)NC(=O)[C@H](CC(N)=O)NC(=O)[C@@H](N)Cc1c[nH]cn1)C(C)C)C(C)C)C(=O)O [Peptide 1188.34] | 10
4 | WLFPRFKFVWVTYASW [Peptide 1136.44.01] | 2
5 | CC[C@H](C)[C@H](NC(=O)[C@H](CO)NC(=O)[C@H](CO)NC(=O)[C@H](CC(N)=O)NC(=O)[C@@H](NC(=O)[C@@H](NC(=O)[C@H](CC(N)=O)NC(=O)[C@H](Cc1ccccc1)NC(=O)[C@@H](N)C(C)C)C(C)C)C(C)C)C(=O)NCC(=O)N[C@@H](CC(C)C)C(=O)N[C@H](C(=O)N[C@@H](CCSC)C(=O)N[C@H](C(=O)N[C@@H](CC(C)C)C(=O)O)C(C)C)[C@@H](C)CC [Peptide F107.23] | 4
6 | CC(C)C[C@H](NC(=O)CNC(=O)[C@H](C)NC(=O)[C@@H](N)CC(C)C)C(=O)N[C@@H](CC(C)C)C(=O)NCC(=O)N[C@@H](CC(N)=O)C(=O)N[C@H](C(=O)N[C@@H](CO)C(=O)N[C@H](C(=O)N[C@H](C(=O)N[C@@H](CC(C)C)C(=O)N[C@@H](CC(C)C)C(=O)NCC(=O)NCC(=O)O)C(C)C)[C@@H](C)O)C(C)C [Peptide F107.10] | 5
7 | CC(C)C[C@H](NC(=O)CNC(=O)[C@H](C)NC(=O)[C@H](CC(C)C)NC(=O)[C@@H](NC(=O)[C@H](CO)NC(=O)[C@@H](NC(=O)[C@H](C)NC(=O)[C@H](CC(C)C)NC(=O)[C@H](CCCCN)NC(=O)[C@H](Cc1ccc(O)cc1)NC(=O)[C@@H](N)CCCCN)[C@@H](C)O)C(C)C)C(=O)N[C@@H](CC(C)C)C(=O)NCC(=O)N[C@@H](CC(N)=O)C(=O)O [Peptide F107.09] | 9
8 | LFHYYFLSEKAPGSTV [Peptide 1136.04] | 6
9 | CSCC[C@H](NC(=O)[C@H](C)NC(=O)[C@H](CC(C)C)NC(=O)[C@@H]1CCCN1C(=O)[C@@H](NC(=O)[C@H](C)NC(=O)[C@H](Cc1c[nH]cn1)NC(=O)[C@H](CC(N)=O)NC(=O)[C@@H](NC(=O)[C@H](Cc1c[nH]c2ccccc12)NC(=O)[C@H](CC(N)=O)NC(=O)[C@H](Cc1c[nH]cn1)NC(=O)[C@@H](N)CCCNC(=N)N)C(C)C)C(C)C)C(=O)N[C@@H](CCCCN)C(=O)N[C@@H](CC(C)C)C(=O)O [Peptide 1188.45] | 9
10 | CC(C)[C@H](NC(=O)[C@H](Cc1ccccc1)NC(=O)[C@H](CCCCN)NC(=O)[C@H](Cc1ccc(O)cc1)NC(=O)[C@H](C)N)C(=O)N[C@H](C(=O)N1CCC[C@H]1C(=O)NCC(=O)N[C@@H](C)C(=O)N[C@@H](C)C(=O)N[C@H](C(=O)N1CCC[C@H]1C(=O)N[C@@H](Cc1ccc(O)cc1)C(=O)N[C@@H](C)C(=O)NCC(=O)O)[C@@H](C)O)C(C)C [Peptide 27.412] | 8
11 | GPPTALRSFGFAFGYM [Peptide 1136.29] | 7
12 | CC[C@H](C)[C@H](NC(=O)[C@H](CC(C)C)NC(=O)[C@H](Cc1ccccc1)NC(=O)[C@@H](NC(=O)[C@@H](NC(=O)[C@@H](NC(=O)[C@H](CC(C)C)NC(=O)[C@H](Cc1ccc(O)cc1)NC(=O)[C@H](CCCCN)NC(=O)[C@@H](NC(=O)[C@@H](N)CC(N)=O)C(C)C)C(C)C)[C@@H](C)CC)C(C)C)C(=O)N[C@@H](Cc1ccccc1)C(=O)N[C@@H](Cc1ccccc1)C(=O)N[C@@H](CC(=O)O)C(=O)N[C@@H](CC(C)C)C(=O)O [Peptide 27.415] | 3
13 | CC(C)[C@H](NC(=O)[C@H](Cc1ccccc1)NC(=O)[C@@H](N)CCCCN)C(=O)N[C@H](C(=O)N1CCC[C@H]1C(=O)NCC(=O)N[C@@H](C)C(=O)N[C@@H](C)C(=O)N[C@H](C(=O)N1CCC[C@H]1C(=O)N[C@@H](Cc1ccc(O)cc1)C(=O)N[C@@H](C)C(=O)NCC(=O)N[C@@H](CCC(=O)O)C(=O)N1CCC[C@H]1C(=O)O)[C@@H](C)O)C(C)C [Peptide F107.17] | 4

Ends that are not written are not given here.
